# Reference: PubChem BioAssay AID445 (National Center for Advancing Translational Sciences (NCATS), 2006)
# Some of the results follow. The main result of the screen is listed elsewhere. These columns were measured beside it and carry no call. The list favours compounds with an active or inconclusive main result. Potencies come from curve fits of mixed quality, noted in brackets.
# Assay: IkB Signaling
# Conditions: ABC-DLBCL IkBa-CBG/CBR dual luciferase ratio (green luciferase fused to IkBa over red control in OCI-Ly3 lymphoma cells), 4 h
# Procedure, shortened: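 Curves were fitted separately to fusion (green), unfused (red) and ratio luminescence, then classed by r2, magnitude and activity. Cells: OCI-Ly3, 4 h compound plus doxycycline at 37C; 10 uM MG-132 defined full response.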
# [1] = measured here: control luc red channel unless noted
# [2] = measured here: IkB-luc green channel
# [3] = measured here: control luc red channel
compound,measurement,setting,value
COC(=O)c1cc2oc3ccccc3c2n1Cc1nc(-c2ccc(Cl)cc2)oc1C,AC50,[1],"15.8 µM [rising, partial curve]"
O=C(c1ccc(Cn2c(=O)[nH]c3ccccc3c2=O)cc1)N1CCN(c2ccc(Cl)cc2)CC1,AC50,[1],"12.6 µM [falling, partial curve]"
O=C(Nc1nc2c(s1)CCCC2)C1COc2ccccc2O1 (centres undefined),AC50,[1],"10 µM [falling, partial curve]"
CC(=O)c1ccc(N2CCN(C(=O)C3CCCN(S(=O)(=O)c4ccc(Br)s4)C3)CC2)cc1 (centres undefined),AC50,[1],"25.1 µM [falling, partial curve]"
Cn1c(C(=O)N(Cc2ccccc2)Cc2ccccn2)cc2sccc21,AC50,[1],"25.1 µM [falling, single point]"
Cc1ccc(-n2nc3ccc(NC(=O)COc4ccccc4C)cc3n2)cc1,AC50,[1],"2.51 µM [rising, full curve]"
Cc1ccc(C)c(N2CCN(C(=O)C3CCCN(S(=O)(=O)c4c(C)noc4C)C3)CC2)c1 (centres undefined),AC50,[1],"12.6 µM [falling, partial curve]"
OCCN1CCN(C(c2cccs2)c2ccc3cccnc3c2O)CC1 (centres undefined),AC50,[2],"6.31 µM [rising, single point]"
same,AC50,[3],"39.8 µM [falling, single point]"
CC1CCN(S(=O)(=O)c2ccc3c(c2)N(CC(=O)NC(C)c2ccccc2)C(=O)CS3)CC1 (centres undefined),AC50,[1],"20 µM [falling, partial curve]"
CC(C)c1nc(N2CCN(C(=O)c3ccco3)CC2)c2c3c(sc2n1)CCCC3,AC50,[1],"12.6 µM [falling, partial curve]"
CC(C)Cn1cc(NC(=O)N2CCN(c3cccc(Cl)c3)CC2)c2ccccc2c1=O,AC50,[1],"25.1 µM [falling, single point]"
CCSc1nnc(NC(=O)c2cccs2)s1,AC50,[1],"10 µM [falling, partial curve]"
COc1ccc(N2CCN(Cc3nc(N)nc(Nc4ccc(C)c(Cl)c4)n3)CC2)cc1,AC50,[1],"10 µM [falling, partial curve]"
CCc1ccc(NC(=O)N2CCOc3ccc(Cl)cc32)cc1,AC50,[1],"31.6 µM [falling, single point]"
COc1cc(Cl)c(S(=O)(=O)NCCc2c(C)[nH]c3c(C)cccc23)cc1Cl,AC50,[1],"39.8 µM [falling, single point]"
COC(=O)c1ccc(NC(=O)CC2C(=O)N(c3cccc(OC)c3)C(=O)N2Cc2cccs2)cc1 (centres undefined),AC50,[1],"20 µM [falling, partial curve]"
CCOc1ccc(-c2cc(CCCC(=O)Nc3cc(OC)ccc3OC)no2)cc1,AC50,[1],"0.316 µM [falling, full curve]"
C=CCSc1nnc2c(n1)[nH]c1c(C)cccc12,AC50,[1],"12.6 µM [falling, partial curve]"
Cc1ccc(-c2nc(NC(=O)CSc3cc(C)c4ccccc4n3)ns2)cc1,AC50,[1],"15.8 µM [falling, partial curve]"
CCCCN(CC)C(=O)CSc1nc2n[nH]c(C)c2c(=N)n1-c1cccc(Cl)c1,AC50,[1],"7.94 µM [falling, partial curve]"
Cc1ccc(NC(=O)Cc2ccc(-n3c(C)nc4cccnc43)cc2)c(Cl)c1,AC50,[1],"5.01 µM [falling, partial curve]"
CCC(=O)N1CCc2cc(Br)cc(S(=O)(=O)CCC(=O)NCc3ccccc3OC)c21,AC50,[1],"12.6 µM [falling, single point]"
COc1ccc(OC)c(NS(=O)(=O)c2ccc3c(c2)C(C)(C)C(=O)N3C)c1,AC50,[1],"15.8 µM [rising, partial curve]"
NC(=O)C1CCN(C(=O)c2ccc(NC(=O)c3nsc4ccccc34)cc2)CC1,AC50,[1],"0.501 µM [falling, full curve]"
NC[C@@H]1O[C@@H](O[C@H]2[C@@H](O)[C@H](O[C@@H]3[C@H](O)[C@H](N)C[C@H](N)[C@H]3O[C@@H]3O[C@@H](CO)[C@H](O)[C@H](O)[C@@H]3N)O[C@H]2CO)[C@H](N)[C@H](O)[C@@H]1O,AC50,[1],"31.6 µM [rising, partial curve, poor fit] [measured here: IkB-luc green channel]"
Cc1ccc(NC(=O)CCSc2nnnn2-c2ccc3c(c2)OCO3)cc1C,AC50,[1],"20 µM [falling, partial curve]"
Clc1cccc(-c2ccc(CNCCSc3nnnn3-c3ccccc3)o2)c1,AC50,[1],"25.1 µM [falling, single point]"
O=C(c1ccccc1)N1CCN(CCc2ccncc2)CC1,AC50,[1],"0.126 µM [falling, full curve, poor fit]"
CC(=O)c1ccc(NC(=O)c2nc3ccccc3nc2N2CCCCC2)cc1,AC50,[1],"31.6 µM [falling, partial curve]"
COc1ccc(Cn2c(C(=O)O)c(CNCc3ccccc3F)c3ccc(OC)cc32)cc1,AC50,[1],"20 µM [falling, single point]"
COC(=O)c1ccc(C2c3c(-c4ccccc4O)n[nH]c3C(=O)N2Cc2cccnc2)cc1 (centres undefined),AC50,[1],"39.8 µM [falling, single point]"
CCN(CCCNC(=O)Cn1ncc2c3ccccc3n(C)c2c1=O)Cc1ccccc1,AC50,[1],"25.1 µM [falling, partial curve]"
O=C(Nc1cc(-c2nc3cc(Cl)ccc3o2)ccc1Cl)c1ccco1,AC50,[1],"5.01 µM [falling, partial curve]"
CCc1ccc(NC(=O)CSc2nc(=O)n(Cc3ccccn3)c3c2CCC3)cc1,AC50,[1],"31.6 µM [falling, single point]"
COc1cccc(C2C(C(=O)Nc3ccc(C)cc3C)=C(C)Nc3c(C(=O)Nc4ccccc4)cnn32)c1 (centres undefined),AC50,[1],"10 µM [falling, partial curve]"
O=C(O)c1cccc(C(=O)Nc2cccc(NC(=O)C3CCCO3)c2)c1 (centres undefined),AC50,[1],"7.94 µM [falling, partial curve]"
COc1ccc(NC(=O)c2cc(S(=O)(=O)N3CCOCC3)ccc2OC)cc1,AC50,[1],"0.126 µM [falling, full curve, poor fit]"
Oc1ccc(Cl)cc1Cc1cc(Cl)ccc1O,AC50,[1],"3.16 µM [falling, full curve]"
COc1ccc(-c2onc(C)c2C)cc1S(=O)(=O)Nc1cccc(C#N)c1,AC50,[1],"3.16 µM [falling, single point]"
O=C(NCCc1ccc(Cl)cc1)c1ccc2c(c1)nc1n2CCOC1,AC50,[1],"39.8 µM [falling, single point]"
CC(=O)C1=C(c2ccc(F)cc2)N(C(C)=O)n2c(nnc2C2CCCCC2)S1,AC50,[1],"6.31 µM [falling, full curve]"
CCOc1ccc(C(=O)NCC(c2ccc(Cl)cc2)N2CCCCC2)cc1 (centres undefined),AC50,[1],"31.6 µM [falling, partial curve]"
COc1ccc(CN(C(=O)c2ccco2)c2ccc(Br)cc2)cc1OC,AC50,[1],"39.8 µM [falling, single point]"
O=C(Cn1ncc2c3ccccc3n(Cc3cccc(Cl)c3)c2c1=O)NCCCN1CCCCC1,AC50,[1],"39.8 µM [falling, single point]"
Cc1ccc(NC(=O)CSc2nc(-c3cccs3)nc3cc(=O)[nH]n23)cc1C,AC50,[1],"31.6 µM [falling, single point]"
Cc1ccc(C)c(N2CCN(C(=O)C3CCN(c4nc(C)cc(C)n4)CC3)CC2)c1,AC50,[1],"12.6 µM [falling, partial curve]"
COC(=O)c1cc(CSc2nc3ccc(C)cc3[nH]2)oc1C,AC50,[1],"3.98 µM [falling, partial curve]"
O=C(NCCc1ccccc1)C1CCN(Cc2cc3ccccc3n2Cc2ccccc2)CC1,AC50,[1],"20 µM [falling, partial curve]"
COc1ccc(-c2cn3cccnc3n2)cc1NC(=O)Nc1cc(C)ccc1C,AC50,[2],"31.6 µM [rising, partial curve]"
same,AC50,[3],"31.6 µM [rising, partial curve]"
CCOc1ccc(-c2cc(C(=O)NC(C)c3ccccc3)c3ccccc3n2)cc1 (centres undefined),AC50,[1],"2 µM [falling, full curve]"
CCOc1ccc(N2CC(=O)SC2=S)cc1,AC50,[1],"25.1 µM [falling, single point]"
O=C(Nc1ccc(C(=O)N2CCN(c3ccccc3F)CC2)cc1)c1nsc2ccccc12,AC50,[1],"0.158 µM [falling, full curve]"
CCN1CSC(=S)N(Cc2ccc(OC)cc2)C1,AC50,[1],"39.8 µM [falling, single point]"
CCOC(=O)c1ccccc1NC(=O)CSc1nnc(Cc2cccn2C)n1-c1ccc(F)cc1,AC50,[1],"15.8 µM [falling, partial curve]"
COc1ccc2c(CC(=O)NCc3ccc4c(c3)OCO4)coc2c1,AC50,[1],"6.31 µM [falling, partial curve]"
CCc1ccc(NC(=O)Nc2ccccc2OCc2cc(=O)n3ccccc3n2)cc1,AC50,[1],"5.01 µM [falling, partial curve]"
COc1ccc(-c2nnn3c2nc(NCc2ccc(C)cc2)c2ccccc23)cc1,AC50,[1],"0.794 µM [falling, single point]"
O=C(c1cc(-c2ccc(F)cc2)on1)N1CCCC1,AC50,[1],"2.51 µM [falling, full curve]"
CCCCNc1ccc(-c2nc(-c3ccccn3)no2)cc1[N+](=O)[O-],AC50,[1],"0.00794 µM [rising, full curve, poor fit]"
O=C(COC(=O)C1(c2ccccc2)CC1)N1CCN(c2ccc(F)cc2)CC1,AC50,[1],"20 µM [falling, single point]"
N=c1n(CCN2CCOCC2)c2ccccc2n1CC(=O)c1ccc(Cl)c(Cl)c1,AC50,[1],"1 µM [falling, full curve]"
CCOc1ccccc1N(C(=O)c1snc(C(N)=O)c1N)C(C(=O)NCCC(C)C)c1ccco1 (centres undefined),AC50,[1],"7.94 µM [falling, full curve]"

# Rewritten with bars between the fields: part of the list above
compound | measurement | setting | value
Clc1cccc(-c2ccc(CNCCSc3nnnn3-c3ccccc3)o2)c1 | AC50 | [1] | 25.1 µM [falling, single point]
O=C(Nc1cc(-c2nc3cc(Cl)ccc3o2)ccc1Cl)c1ccco1 | AC50 | [1] | 5.01 µM [falling, partial curve]
CC(=O)C1=C(c2ccc(F)cc2)N(C(C)=O)n2c(nnc2C2CCCCC2)S1 | AC50 | [1] | 6.31 µM [falling, full curve]
Cc1ccc(C)c(N2CCN(C(=O)C3CCN(c4nc(C)cc(C)n4)CC3)CC2)c1 | AC50 | [1] | 12.6 µM [falling, partial curve]
COc1ccc2c(CC(=O)NCc3ccc4c(c3)OCO4)coc2c1 | AC50 | [1] | 6.31 µM [falling, partial curve]
